Some of the results follow.
Experiments:
Assay in all cases: log2 fold change, soluble protein after heating vs DMSO (PISA); higher = thermal stabilisation; K562 lysate, 10 uM; active = over 0.2 and 3.5 SD of the protein, either way, in both replicates (recomputed)
[1] = compound: CN1CC[C@H](c2c(O)cc(O)c3c(=O)cc(-c4ccccc4Cl)oc23)[C@H](O)C1 [alvocidib]
In short: (§1)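 Values give the log-two fold change in thermal stability against solvent controls, from duplicates. Crude K562 extract at 1 mg/mL protein, made by dounce homogenisation in PBS pH 7.4 with 1 mM MgCl2, was treated with 10 μM compound for 30 min. After 3 min heating across 48°C-58°C, aliquots were pooled, adjusted to 0.5% NP-40 at 4°C and centrifuged at 21,000xg for 90 min. The supernatant was measured by TMTpro 16plex LC-MS/MS with channel sums equalised.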

Amino acid sequences for entries named in this document (tags omitted). A change or cut given only in a name is not applied to a line headed by its entry.
UniProt Q9H974: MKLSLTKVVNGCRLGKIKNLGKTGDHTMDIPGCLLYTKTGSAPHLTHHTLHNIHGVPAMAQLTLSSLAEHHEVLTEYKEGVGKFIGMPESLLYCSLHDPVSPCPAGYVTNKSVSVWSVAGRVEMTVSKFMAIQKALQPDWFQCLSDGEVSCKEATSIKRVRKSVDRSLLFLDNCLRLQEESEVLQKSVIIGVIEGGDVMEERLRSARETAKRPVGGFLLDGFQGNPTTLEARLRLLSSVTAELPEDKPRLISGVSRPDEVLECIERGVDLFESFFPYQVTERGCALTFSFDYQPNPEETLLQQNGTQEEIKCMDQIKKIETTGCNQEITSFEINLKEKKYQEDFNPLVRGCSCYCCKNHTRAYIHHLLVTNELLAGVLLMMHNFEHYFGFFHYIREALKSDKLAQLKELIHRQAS
UniProt Q8TBN0: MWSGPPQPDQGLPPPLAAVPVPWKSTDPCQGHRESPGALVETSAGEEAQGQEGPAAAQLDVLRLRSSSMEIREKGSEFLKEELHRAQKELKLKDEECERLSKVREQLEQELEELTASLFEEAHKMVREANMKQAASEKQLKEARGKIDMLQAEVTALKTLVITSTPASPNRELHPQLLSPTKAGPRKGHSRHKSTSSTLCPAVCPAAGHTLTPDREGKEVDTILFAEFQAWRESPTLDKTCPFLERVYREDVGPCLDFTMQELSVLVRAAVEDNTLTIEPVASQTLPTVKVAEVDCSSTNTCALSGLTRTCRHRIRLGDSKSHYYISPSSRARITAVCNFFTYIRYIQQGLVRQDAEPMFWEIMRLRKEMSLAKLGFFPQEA
UniProt P51148: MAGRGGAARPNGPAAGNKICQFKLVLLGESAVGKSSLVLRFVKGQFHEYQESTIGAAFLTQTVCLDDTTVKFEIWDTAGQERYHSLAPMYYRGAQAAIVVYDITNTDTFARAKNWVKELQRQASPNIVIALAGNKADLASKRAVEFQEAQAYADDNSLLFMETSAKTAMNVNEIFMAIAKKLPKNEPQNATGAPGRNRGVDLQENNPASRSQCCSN
UniProt Q92930: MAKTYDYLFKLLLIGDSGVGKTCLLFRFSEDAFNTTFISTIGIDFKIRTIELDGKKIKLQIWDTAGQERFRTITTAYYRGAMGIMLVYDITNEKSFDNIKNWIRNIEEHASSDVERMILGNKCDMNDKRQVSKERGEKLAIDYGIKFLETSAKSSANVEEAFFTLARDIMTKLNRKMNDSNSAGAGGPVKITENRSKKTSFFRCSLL
UniProt Q96B01: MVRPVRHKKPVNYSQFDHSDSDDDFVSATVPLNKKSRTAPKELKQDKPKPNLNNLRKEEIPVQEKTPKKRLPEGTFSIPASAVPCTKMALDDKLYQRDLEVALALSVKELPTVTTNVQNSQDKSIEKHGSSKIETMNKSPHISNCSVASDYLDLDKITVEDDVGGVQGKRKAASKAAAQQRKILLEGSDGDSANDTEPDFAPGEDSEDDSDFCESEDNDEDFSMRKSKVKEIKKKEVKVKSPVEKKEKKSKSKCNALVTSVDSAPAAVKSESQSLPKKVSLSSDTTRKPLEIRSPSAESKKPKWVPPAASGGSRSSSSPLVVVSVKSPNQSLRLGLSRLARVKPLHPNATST
UniProt P43487, whole entry, looked up: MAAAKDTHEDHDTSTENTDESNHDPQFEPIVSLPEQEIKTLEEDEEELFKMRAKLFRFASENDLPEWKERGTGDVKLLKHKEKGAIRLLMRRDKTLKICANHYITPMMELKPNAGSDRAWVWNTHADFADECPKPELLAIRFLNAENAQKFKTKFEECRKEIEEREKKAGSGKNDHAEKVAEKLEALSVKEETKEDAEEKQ
UniProt Q15032: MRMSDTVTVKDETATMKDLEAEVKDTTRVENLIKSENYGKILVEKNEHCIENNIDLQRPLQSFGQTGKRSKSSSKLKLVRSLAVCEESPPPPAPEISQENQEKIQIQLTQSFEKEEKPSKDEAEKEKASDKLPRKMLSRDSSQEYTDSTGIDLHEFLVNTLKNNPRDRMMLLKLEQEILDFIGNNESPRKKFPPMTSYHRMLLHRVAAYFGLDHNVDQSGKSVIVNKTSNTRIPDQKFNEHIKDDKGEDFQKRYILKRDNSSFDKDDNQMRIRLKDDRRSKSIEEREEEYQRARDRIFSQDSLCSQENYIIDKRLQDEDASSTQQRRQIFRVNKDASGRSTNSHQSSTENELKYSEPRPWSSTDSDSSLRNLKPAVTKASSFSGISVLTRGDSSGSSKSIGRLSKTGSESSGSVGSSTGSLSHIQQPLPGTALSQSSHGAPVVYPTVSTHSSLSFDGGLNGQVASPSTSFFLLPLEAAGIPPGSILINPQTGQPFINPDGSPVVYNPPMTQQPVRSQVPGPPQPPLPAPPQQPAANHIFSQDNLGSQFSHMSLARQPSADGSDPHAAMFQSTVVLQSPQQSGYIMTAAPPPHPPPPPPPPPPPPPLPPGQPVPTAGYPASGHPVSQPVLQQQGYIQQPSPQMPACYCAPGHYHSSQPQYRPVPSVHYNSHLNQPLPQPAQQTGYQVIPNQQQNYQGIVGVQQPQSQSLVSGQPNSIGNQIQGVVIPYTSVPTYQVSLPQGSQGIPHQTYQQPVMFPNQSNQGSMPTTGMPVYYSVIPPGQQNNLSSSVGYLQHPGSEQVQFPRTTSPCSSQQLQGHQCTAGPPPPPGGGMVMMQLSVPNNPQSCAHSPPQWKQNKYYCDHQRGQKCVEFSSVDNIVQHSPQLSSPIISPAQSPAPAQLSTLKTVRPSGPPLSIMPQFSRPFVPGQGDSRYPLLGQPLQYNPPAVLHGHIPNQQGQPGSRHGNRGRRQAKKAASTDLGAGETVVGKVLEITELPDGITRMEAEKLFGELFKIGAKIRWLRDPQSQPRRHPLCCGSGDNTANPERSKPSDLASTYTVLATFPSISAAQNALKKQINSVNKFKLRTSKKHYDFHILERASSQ
UniProt Q96D70: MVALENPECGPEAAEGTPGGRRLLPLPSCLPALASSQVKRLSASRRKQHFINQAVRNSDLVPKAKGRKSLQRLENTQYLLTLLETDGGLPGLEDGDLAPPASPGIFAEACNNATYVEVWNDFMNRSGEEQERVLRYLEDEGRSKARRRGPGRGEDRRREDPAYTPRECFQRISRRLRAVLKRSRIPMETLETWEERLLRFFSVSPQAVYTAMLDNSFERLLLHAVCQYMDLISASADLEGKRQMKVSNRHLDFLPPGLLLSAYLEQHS
UniProt O75771: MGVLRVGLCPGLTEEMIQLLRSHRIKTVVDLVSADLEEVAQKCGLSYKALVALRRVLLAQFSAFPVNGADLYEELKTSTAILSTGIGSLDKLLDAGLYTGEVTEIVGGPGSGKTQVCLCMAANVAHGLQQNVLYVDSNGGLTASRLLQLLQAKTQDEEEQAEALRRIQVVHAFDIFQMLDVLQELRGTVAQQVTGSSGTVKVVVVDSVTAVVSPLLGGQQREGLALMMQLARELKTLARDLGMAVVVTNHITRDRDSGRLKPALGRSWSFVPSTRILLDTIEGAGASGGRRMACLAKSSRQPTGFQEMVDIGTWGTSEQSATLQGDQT
UniProt Q8WUD1: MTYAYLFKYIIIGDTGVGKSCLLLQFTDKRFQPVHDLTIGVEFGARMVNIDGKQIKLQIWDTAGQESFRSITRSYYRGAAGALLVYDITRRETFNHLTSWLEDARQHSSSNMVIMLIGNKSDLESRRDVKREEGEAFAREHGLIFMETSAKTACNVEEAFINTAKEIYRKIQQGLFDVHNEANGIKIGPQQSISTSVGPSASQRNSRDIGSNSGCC
UniProt Q96S21: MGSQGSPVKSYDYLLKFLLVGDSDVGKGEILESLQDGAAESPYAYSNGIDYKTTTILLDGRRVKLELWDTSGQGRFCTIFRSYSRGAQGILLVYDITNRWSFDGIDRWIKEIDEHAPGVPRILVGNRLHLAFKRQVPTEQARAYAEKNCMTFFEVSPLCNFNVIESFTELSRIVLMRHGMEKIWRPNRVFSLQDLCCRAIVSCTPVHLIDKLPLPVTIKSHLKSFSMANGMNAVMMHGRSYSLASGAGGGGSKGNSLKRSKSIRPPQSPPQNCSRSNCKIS
UniProt Q92696: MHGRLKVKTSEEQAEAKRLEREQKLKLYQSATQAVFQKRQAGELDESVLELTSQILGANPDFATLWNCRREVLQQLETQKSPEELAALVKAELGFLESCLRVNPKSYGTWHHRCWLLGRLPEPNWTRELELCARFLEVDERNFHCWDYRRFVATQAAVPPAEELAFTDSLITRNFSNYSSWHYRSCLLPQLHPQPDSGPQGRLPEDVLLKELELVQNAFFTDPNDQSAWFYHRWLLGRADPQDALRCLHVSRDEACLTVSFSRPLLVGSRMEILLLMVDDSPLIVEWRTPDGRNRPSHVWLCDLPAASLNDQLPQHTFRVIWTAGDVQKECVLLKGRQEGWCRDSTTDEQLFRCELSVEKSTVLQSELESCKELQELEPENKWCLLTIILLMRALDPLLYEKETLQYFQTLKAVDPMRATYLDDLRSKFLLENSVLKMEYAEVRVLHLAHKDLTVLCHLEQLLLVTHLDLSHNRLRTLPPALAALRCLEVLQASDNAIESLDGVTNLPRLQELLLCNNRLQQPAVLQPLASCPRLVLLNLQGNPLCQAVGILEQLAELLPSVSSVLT
UniProt P20336: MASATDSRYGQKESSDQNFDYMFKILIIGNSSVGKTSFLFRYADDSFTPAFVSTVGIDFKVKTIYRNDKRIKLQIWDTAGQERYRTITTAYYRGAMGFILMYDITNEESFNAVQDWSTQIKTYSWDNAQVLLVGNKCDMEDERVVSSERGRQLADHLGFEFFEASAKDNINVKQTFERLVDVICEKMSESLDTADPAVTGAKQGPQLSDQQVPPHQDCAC
UniProt O15315: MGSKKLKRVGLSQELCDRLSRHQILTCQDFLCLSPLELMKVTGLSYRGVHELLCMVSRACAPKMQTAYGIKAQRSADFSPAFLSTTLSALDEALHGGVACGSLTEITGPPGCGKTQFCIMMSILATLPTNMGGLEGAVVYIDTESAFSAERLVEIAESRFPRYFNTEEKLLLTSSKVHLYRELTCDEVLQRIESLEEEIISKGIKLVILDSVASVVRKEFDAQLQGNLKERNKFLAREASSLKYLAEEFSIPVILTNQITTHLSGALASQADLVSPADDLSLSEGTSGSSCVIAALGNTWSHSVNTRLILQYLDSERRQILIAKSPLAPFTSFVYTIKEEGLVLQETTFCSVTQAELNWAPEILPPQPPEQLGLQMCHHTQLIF

[2] = compound: CN1CCc2c(c3ccccc3n2Cc2ccc(C(=O)NO)cc2)C1 [Tubastatin A]
In short: as §1

[3] = compound: CNC(=O)C1=CC=CC=C1NC2=NC(=NC=C2Cl)NC3=C(C=C(C=C3)N4CCOCC4)OC
In short: as §1

[4] = compound: CNC(=O)c1ccc(Nc2ncc(C(F)(F)F)c(NCc3nccnc3N(C)S(C)(=O)=O)n2)cc1 [defactinib]
In short: as §1

[5] = compound: CNc1nc(-c2ccc3c(N)n[nH]c3c2)cc(N2C[C@@H](C(=O)NC3CCCCC3)CC[C@H]2C)n1
In short: as §1

[6] = compound: COC(=O)N[C@@H](C)CNc1nccc(-c2cn(C(C)C)nc2-c2cc(Cl)cc(NS(C)(=O)=O)c2F)n1 [encorafenib]
In short: as §1

[7] = compound: COC(=O)[C@H](CCSC)NC(=O)C1=C(C=C(C=C1)NC[C@H](CS)N)C2=CC=CC=C2
In short: as §1

[8] = compound: COc1cc(Nc2ncc3c(n2)-c2ccc(Cl)cc2C(c2c(F)cccc2OC)=NC3)ccc1C(=O)O [alisertib]
In short: as §1

[9] = compound: COc1cc2nc(-c3cc(F)ccc3O)nc(N[C@@H]3CNC[C@H]3C(C)(C)O)c2cc1OC
In short: as §1

[10] = compound: COc1cc2ncnc(Nc3ccc(F)c(Cl)c3)c2cc1OCCCN1CCOCC1 [gefitinib]
In short: as §1

[11] = compound: CS(=O)(=O)CCNCc1ccc(-c2ccc3ncnc(Nc4ccc(OCc5cccc(F)c5)c(Cl)c4)c3c2)o1 [lapatinib]
In short: as §1

[12] = compound: CS(=O)(=O)N1CCN(Cc2cc3nc(-c4cccc5[nH]ncc45)nc(N4CCOCC4)c3s2)CC1 [pictilisib]
In short: as §1

[13] = compound: C[C@@H](Oc1cc(-c2cnn(C3CCNCC3)c2)cnc1N)c1c(Cl)ccc(F)c1Cl [crizotinib]
In short: as §1

[14] = compound: C[C@H](C1=CC=C(C=C1)C(=O)NC2=C3C=CNC3=NC=C2)N
In short: as §1

[15] = compound: C[C@H](Nc1ncnc2nc[nH]c12)c1cc2cccc(Cl)c2c(=O)n1-c1ccccc1 [duvelisib]
In short: as §1

[16] = compound: Cc1cc(Nc2cc(CN3CCOCC3)c3nc(C)c(Cc4ccc(Cl)cc4F)n3n2)n[nH]1 [gandotinib]
In short: as §1

[17] = compound: Cc1cc(Nc2cc(N3CCN(C)CC3)nc(Sc3ccc(NC(=O)C4CC4)cc3)n2)n[nH]1 [tozasertib]
In short: as §1

[18] = compound: Cc1ccc(-n2nc(C(C)(C)C)cc2NC(=O)Nc2ccc(OCCN3CCOCC3)c3ccccc23)cc1 [doramapimod]
In short: as §1

[19] = compound: Cc1ccc(NC(=O)c2ccc(CN3CC[C@H](N(C)C)C3)c(C(F)(F)F)c2)cc1Nc1nccc(-c2cncnc2)n1 [bafetinib]
In short: as §1

[20] = compound: Cc1cccc(CC(=O)N2CCc3c2ccc(-c2cn(C)c4ncnc(N)c24)c3F)n1
In short: as §1

Row | Target | log2 fold change [1] | log2 fold change [2] | log2 fold change [3] | log2 fold change [4] | log2 fold change [5] | log2 fold change [6] | log2 fold change [7] | log2 fold change [8] | log2 fold change [9] | log2 fold change [10] | log2 fold change [11] | log2 fold change [12] | log2 fold change [13] | log2 fold change [14] | log2 fold change [15] | log2 fold change [16] | log2 fold change [17] | log2 fold change [18] | log2 fold change [19] | log2 fold change [20]
1 | QTRT2 isoform 4 (UniProt Q9H974) | inactive: -0.105 | inactive: 0.003 | inactive: 0.018 | inactive: -0.014 | inactive: 0 | inactive: -0.018 | inactive: -0.044 | inactive: 0.016 | inactive: 0.008 | inactive: 0.031 | inactive: -0.016 | inactive: -0.037 | inactive: -0.018 | active: -0.297 | inactive: -0.008 | inactive: 0.185 | inactive: 0.003 | inactive: -0.029 | inactive: -0.089 | active: 0.256
2 | RAB3IL1 (UniProt Q8TBN0) | inactive: 0.027 | inactive: -0.021 | inactive: 0.022 | inactive: 0.007 | inactive: 0.009 | inactive: -0.006 | inactive: -0.031 | inactive: -0.013 | inactive: 0.039 | inactive: 0.014 | inactive: -0.002 | inactive: -0.034 | inactive: -0.023 | inactive: 0 | inactive: -0.003 | inactive: -0.014 | inactive: -0.004 | inactive: -0.012 | inactive: 0.006 | inactive: -0.02
3 | RAB5C isoform 2 (UniProt P51148) | inactive: -0.034 | inactive: 0.056 | inactive: -0.01 | inactive: 0.014 | inactive: 0.004 | inactive: -0.002 | inactive: -0.103 | inactive: 0.016 | inactive: 0.03 | inactive: -0.005 | inactive: -0.006 | inactive: -0.062 | inactive: 0.011 | inactive: -0.079 | inactive: 0.012 | inactive: 0.012 | inactive: -0.019 | inactive: -0.028 | inactive: 0.021 | inactive: 0.043
4 | RAB8B (UniProt Q92930) | inactive: 0.037 | inactive: 0.034 | inactive: -0.011 | inactive: -0.016 | inactive: -0.026 | inactive: -0.002 | inactive: -0.045 | inactive: 0.016 | inactive: 0.015 | inactive: 0.115 | inactive: 0.065 | inactive: -0.018 | inactive: 0.034 | inactive: 0.037 | inactive: 0.098 | active: -0.289 | inactive: 0.003 | inactive: -0.013 | inactive: 0.088 | inactive: -0.079
5 | RAD51AP1 (UniProt Q96B01) | inactive: -0.035 | inactive: -0.001 | inactive: -0.009 |  | inactive: 0 | inactive: -0.044 | inactive: -0.093 | inactive: -0.062 | inactive: -0.015 | inactive: 0.023 | inactive: -0.046 | inactive: 0.003 | inactive: 0.033 | inactive: -0.051 | inactive: 0.198 | inactive: 0.134 | inactive: 0.023 | inactive: -0.028 | inactive: -0.025 | inactive: 0.021
6 | RANBP1 (UniProt P43487) | inactive: 0.001 | inactive: 0.055 | inactive: -0.022 | inactive: -0.006 | inactive: -0.023 | inactive: -0.027 | inactive: -0.026 | inactive: -0.009 | inactive: -0.002 | inactive: 0.01 | inactive: 0.008 | inactive: 0.019 | inactive: 0.026 | inactive: -0.028 | inactive: 0.016 | inactive: 0.017 | inactive: 0.004 | inactive: 0.02 | inactive: 0.058 | inactive: -0.055
7 | R3HDM1 isoform 3 (UniProt Q15032) | inactive: -0.034 | inactive: 0.004 | inactive: 0.002 | inactive: 0.023 | inactive: 0.065 | inactive: 0.065 | inactive: 0.04 |  | inactive: 0.029 |  | inactive: -0.099 | inactive: -0.122 | inactive: -0.012 | inactive: 0.003 | inactive: 0.01 | inactive: -0.022 | inactive: 0.095 | inactive: 0.054 | inactive: -0.023 | inactive: -0.03
8 | R3HDM4 (UniProt Q96D70) | inactive: -0.042 | inactive: -0.016 | inactive: -0.069 | inactive: -0.06 | inactive: -0.092 | inactive: 0.11 | inactive: -0.126 | inactive: -0.006 |  | inactive: 0.056 |  |  | inactive: -0.023 | inactive: 0.155 | inactive: 0.035 | inactive: -0.074 | inactive: -0.028 | inactive: -0.073 |  | inactive: 0.052
9 | RALBP1 (UniProt Q15311) | inactive: 0.006 | inactive: -0.023 | inactive: -0.011 | inactive: 0.008 | inactive: -0.053 | inactive: 0.014 | inactive: 0.17 | inactive: -0.003 | inactive: -0.001 | inactive: 0.004 | inactive: -0.056 | inactive: -0.027 | inactive: -0.033 | inactive: -0.033 | inactive: 0.001 | inactive: 0.019 | inactive: -0.015 | inactive: -0.012 | inactive: -0.064 | inactive: 0.003
10 | RAD51D (UniProt O75771) | inactive: 0.171 | inactive: 0.015 | inactive: 0.006 | inactive: -0.047 | inactive: -0.053 | inactive: 0.07 | inactive: 0.011 | inactive: -0.084 | inactive: -0.031 | inactive: 0.113 | inactive: 0.008 | inactive: 0.012 |  | inactive: 0.104 | inactive: -0.106 | inactive: -0.127 | inactive: 0.042 |  | inactive: -0.065 | inactive: 0.048
11 | RAB2B (UniProt Q8WUD1) | inactive: -0.011 | inactive: 0.038 | inactive: 0.03 | inactive: -0.012 | inactive: 0.031 | inactive: 0.024 | inactive: -0.044 | inactive: -0.008 | inactive: 0.043 | inactive: 0.009 | inactive: -0.006 | inactive: -0.048 | inactive: 0.022 | inactive: -0.042 | inactive: -0.021 | inactive: -0.01 | inactive: -0.004 | inactive: -0.018 | inactive: 0.041 | inactive: 0.01
12 | RAB40C (UniProt Q96S21) | inactive: -0.072 | inactive: 0.048 | inactive: -0.04 | inactive: -0.125 |  | inactive: -0.047 | inactive: -0.029 | inactive: -0.059 | inactive: 0.091 | inactive: 0.067 | inactive: -0.111 | inactive: -0.081 | inactive: -0.075 | inactive: -0.005 |  | inactive: 0.05 | inactive: -0.071 | inactive: 0.075 | inactive: 0.007 | inactive: -0.027
13 | RABGGTA (UniProt Q92696) | inactive: -0.026 | inactive: -0.008 | inactive: -0.007 | inactive: -0.015 | inactive: -0.051 | inactive: 0.038 | inactive: -0.205 | inactive: 0.011 | inactive: 0.006 | inactive: 0.008 | inactive: -0.017 | inactive: -0.006 | inactive: -0.047 | inactive: -0.065 | inactive: 0.008 | inactive: -0.004 | inactive: 0.043 | inactive: 0.027 | inactive: -0.044 | inactive: 0.029
14 | RAB28 (UniProt P51157) | inactive: -0.024 | inactive: -0.084 | inactive: 0 | inactive: -0.019 | inactive: -0.132 | inactive: 0.024 | inactive: 0.092 |  | inactive: 0.04 |  | inactive: -0.036 | inactive: -0.101 | inactive: -0.021 | inactive: -0.018 | inactive: -0.093 | inactive: -0.032 | inactive: 0.029 | inactive: -0.049 | inactive: 0.042 | inactive: 0.146
15 | RAB3A (UniProt P20336) | inactive: -0.01 | inactive: -0.007 | inactive: 0.022 | inactive: 0.002 | inactive: 0.008 | inactive: 0.09 | inactive: -0.041 | inactive: 0.077 | inactive: 0.014 | inactive: 0.001 | inactive: -0.1 | inactive: 0.039 | inactive: 0.102 | inactive: 0.033 | inactive: 0.027 | inactive: -0.052 | inactive: -0.028 | inactive: 0.1 | inactive: 0.074 | inactive: -0.123
16 | RAD51B (UniProt O15315) | inactive: 0.127 | inactive: 0.05 | inactive: -0.03 | inactive: -0.064 | inactive: -0.052 | inactive: -0.096 | inactive: 0.079 | inactive: -0.035 |  | inactive: -0.071 |  | inactive: -0.188 | inactive: -0.126 | inactive: 0.009 | inactive: 0.006 | inactive: 0.014 | inactive: -0.017 | inactive: -0.117 | inactive: -0.072 | inactive: 0.126
17 | RABGAP1L isoform 5 (UniProt Q5R372) | inactive: -0.065 | inactive: 0.067 | inactive: -0.03 | inactive: 0.055 | inactive: 0.066 | inactive: 0.01 | inactive: -0.096 | inactive: -0.053 | inactive: 0 | inactive: 0.009 | inactive: -0.022 | inactive: -0.01 | inactive: -0.016 | inactive: 0.054 | inactive: 0.019 | inactive: 0.011 | inactive: 0.013 | inactive: 0.042 | inactive: 0.037 | inactive: 0.003

Complete entries, quoted from the list. Order of values: log2 fold change [1] | log2 fold change [2] | log2 fold change [3] | log2 fold change [4] | log2 fold change [5] | log2 fold change [6] | log2 fold change [7] | log2 fold change [8] | log2 fold change [9] | log2 fold change [10] | log2 fold change [11] | log2 fold change [12] | log2 fold change [13] | log2 fold change [14] | log2 fold change [15] | log2 fold change [16] | log2 fold change [17] | log2 fold change [18] | log2 fold change [19] | log2 fold change [20]
RANBP1 (UniProt P43487) as listed: inactive: 0.001 | inactive: 0.055 | inactive: -0.022 | inactive: -0.006 | inactive: -0.023 | inactive: -0.027 | inactive: -0.026 | inactive: -0.009 | inactive: -0.002 | inactive: 0.01 | inactive: 0.008 | inactive: 0.019 | inactive: 0.026 | inactive: -0.028 | inactive: 0.016 | inactive: 0.017 | inactive: 0.004 | inactive: 0.02 | inactive: 0.058 | inactive: -0.055
RAB8B (UniProt Q92930) as listed: inactive: 0.037 | inactive: 0.034 | inactive: -0.011 | inactive: -0.016 | inactive: -0.026 | inactive: -0.002 | inactive: -0.045 | inactive: 0.016 | inactive: 0.015 | inactive: 0.115 | inactive: 0.065 | inactive: -0.018 | inactive: 0.034 | inactive: 0.037 | inactive: 0.098 | active: -0.289 | inactive: 0.003 | inactive: -0.013 | inactive: 0.088 | inactive: -0.079

Source: the supplement of paper PMC10849652
